Results are given in words; binding and its absence hold for the method and conditions named. In cells and extracts the contact can be indirect. Some results given as binding are weak or reduced against the parent protein; the word gives no strength.
What was measured:
[1] = molecular target: EphA2 receptor (human (endogenous in RDES)) (UniProt P29317); assay: co-IP; lysate of the RDES model (500 µg protein) in 50 mM Tris-HCl pH 7.6, 150 mM NaCl, 1% NP-40 with protease and phosphatase inhibitors; immunoprecipitated with anti-CAV1 or anti-EphA2 antibody on Protein G magnetic beads, immunoblot; normal IgG as control
[2] = molecular target: Caveolin-1 (human (endogenous in RDES)) (UniProt Q03135); assay: as above

The chains behind the UniProt entries cited, without tags or fusion partners. Residues count along the entry.
UniProt P29317, residues 24-976: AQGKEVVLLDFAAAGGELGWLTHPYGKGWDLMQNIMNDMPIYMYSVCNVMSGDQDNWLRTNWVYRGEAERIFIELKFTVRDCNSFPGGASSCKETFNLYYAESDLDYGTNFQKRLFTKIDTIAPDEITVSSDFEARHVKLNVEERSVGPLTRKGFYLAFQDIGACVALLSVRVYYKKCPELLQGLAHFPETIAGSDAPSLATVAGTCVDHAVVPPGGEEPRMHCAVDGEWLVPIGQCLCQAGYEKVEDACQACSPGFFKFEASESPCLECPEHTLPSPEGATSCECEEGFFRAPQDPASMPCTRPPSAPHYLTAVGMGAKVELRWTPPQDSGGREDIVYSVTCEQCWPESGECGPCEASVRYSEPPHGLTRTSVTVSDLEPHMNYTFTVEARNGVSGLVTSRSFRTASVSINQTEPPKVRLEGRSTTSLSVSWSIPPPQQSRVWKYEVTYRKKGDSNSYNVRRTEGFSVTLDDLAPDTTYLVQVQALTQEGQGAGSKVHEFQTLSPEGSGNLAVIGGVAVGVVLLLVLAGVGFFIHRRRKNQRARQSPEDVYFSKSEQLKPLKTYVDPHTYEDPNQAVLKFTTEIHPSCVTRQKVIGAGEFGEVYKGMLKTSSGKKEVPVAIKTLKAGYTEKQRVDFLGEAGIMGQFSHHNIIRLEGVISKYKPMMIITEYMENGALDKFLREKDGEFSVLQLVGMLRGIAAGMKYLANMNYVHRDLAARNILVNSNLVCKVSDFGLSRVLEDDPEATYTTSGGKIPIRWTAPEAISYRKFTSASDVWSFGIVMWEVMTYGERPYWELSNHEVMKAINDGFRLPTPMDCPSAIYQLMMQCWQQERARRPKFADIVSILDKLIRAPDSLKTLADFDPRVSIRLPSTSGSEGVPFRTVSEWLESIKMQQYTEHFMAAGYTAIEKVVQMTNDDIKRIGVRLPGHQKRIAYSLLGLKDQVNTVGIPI
UniProt Q03135: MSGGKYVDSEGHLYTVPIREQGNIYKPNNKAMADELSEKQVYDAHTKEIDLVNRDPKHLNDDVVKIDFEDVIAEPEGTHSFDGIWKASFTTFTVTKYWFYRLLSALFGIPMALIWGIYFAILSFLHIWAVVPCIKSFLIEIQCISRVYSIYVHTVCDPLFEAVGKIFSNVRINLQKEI

binding [1] | binding [2] | Substance
binds |  | Caveolin-1 (from UniProt Q03135 1-178)
 | binds | EphA2 receptor (from UniProt P29317 24-976)

— PMC3741133
